This passage reports cell number change and AC50 results from PubChem BioAssay AID2685 (National Center for Advancing Translational Sciences (NCATS), 2010).

The nature of this assay: qHTS Assay for Lipid Storage Modulators in Drosophila S3 Cells.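 For cell number change: cells counted by Cell Tracker Red CMTPX staining in the red channel.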 The following applies: BODIPY lipid droplet fluorescence, 18-24 h; for cell number change: measured here: cell count max response, cells fed with added oleic acid. The method, boiled down: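 Drosophila S3 cells loaded with oleic acid (400 uM, as added) and compounds at several concentrations; lipid droplets imaged by 488-nm laser-scanning cytometry, 500–530 nm intensity and object ratio to cell channel. Percent activity normalized to 20 uM Triacsin C.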
For orientation: In qHTS, concentration-response curves come from the screen itself.

[1] abbreviates: measured here: cell number channel AC50, cells fed with added oleic acid.
Setting [2] is: measured here: lipid fluorescence (Fed channel) AC50, cells fed with added oleic acid.

Some of the results follow. Further columns of the screen follow, without active or inactive calls. The list favours compounds with an active or inconclusive main result. Potencies come from curve fits of mixed quality, noted in brackets.

Broadly, the AC50 is the concentration giving half of the maximal activity seen. For `O=C(O)c1ccc(Cl)c(S(=O)(=O)Nc2ccc3cn[nH]c3c2)c1`, the cell number change was -35.8%. Further, the AC50 under setting [1] is 0.517 µM [falling, full curve]. For the same compound, the AC50 under setting [2] is 0.651 µM [falling, full curve].
For `CCN(CC(=O)NC(C)(C)C)C(=O)COc1c(Cl)cc(Cl)c2ccc(C)nc12`, the cell number change was -38.4%. Under setting [1], the AC50 is 20.6 µM [falling, single point]. For the same compound, the AC50 under setting [2] was 11.6 µM [falling, partial curve].
As for `CC1CCCN(CCOCCOc2ccc(Cl)cc2Br)C1` (configuration not stated), the cell number change was -2.96%. The AC50 under setting [2] is 6.51 µM [falling, partial curve, poor fit].
Take `Nn1c(SCC(=O)N2CCCc3ccccc32)nncc1=O`: the cell number change was -22%. In addition, the AC50 under setting [2] was 1.84 µM [falling, full curve, poor fit].
Regarding `COc1ccc(C(CNC(=O)CN2C(=O)NC3(CC(C)CC(C)(C)C3)C2=O)N2CCOCC2)cc1` (configuration not stated), the AC50 under setting [2] is 0.731 µM [falling, single point].
In the case of `CCCOc1cccc(C(=O)Nc2ccc3c(c2)OCCO3)c1`, the cell number change was -8.73%.
`Nc1nc(-c2cc(O)ccc2[N+](=O)[O-])cc(-c2ccccc2)c1[N+](=O)[O-]`: the cell number change is -25.1%. Also, the AC50 under setting [1] was 2.06 µM [falling, full curve, poor fit]. Also, the AC50 under setting [2] is 5.8 µM [falling, full curve].
Take `C=CCN(C(=O)CNC(=O)c1ccco1)C(C(=O)NC1CCCCC1)c1ccccc1F` (configuration not stated): under setting [2], the AC50 is 6.51 µM [rising, single point].
On to `COc1ccc2c(C(=O)CN3CCN(c4ccccc4)CC3)c[nH]c2c1`, for which the cell number change worked out at 32.1%. Moreover, the AC50 under setting [1] is 2.59 µM [rising, full curve]. Also, under setting [2], the AC50 was 20.6 µM [rising, single point].
As for `COc1ccc([C@H]2[C@H](C(=O)C(C)(C)C)N3N=Cc4ccccc4C3C23C(=O)OC(C)(C)OC3=O)cc1` (some centres not stated), the cell number change was -23.1%. Besides, under setting [1], the AC50 was 6.51 µM [rising, single point]. In addition, the AC50 under setting [2] is 2.59 µM [rising, partial curve, poor fit].
Turning to `COc1ccc(C2CC(=O)c3cnc(NC(=O)c4cc(OC)cc(OC)c4)nc3C2)cc1` (configuration not stated), the cell number change was 85.4%. In addition, the AC50 under setting [1] was 18.4 µM [rising, partial curve]. The AC50 under setting [2] was 0.58 µM [rising, partial curve].
Take `COCC(C)OC(=O)c1c(N)n(CC(C)C)c2nc3ccccc3nc12` (configuration not stated): the AC50 under setting [2] was 16.4 µM [rising, single point].
In the case of `O=C(Nc1ccccc1)Nc1ccc2ocnc2c1`, the cell number change is 37.7%.
Consider `CCOC(=O)c1ccc(N2C(=O)CC(N3CCC(O)(c4ccc(Cl)cc4)CC3)C2=O)cc1` (configuration not stated), for which the cell number change was -10.6%. Also, the concentration at half-maximal activity (AC50) under setting [2] is 23.1 µM [falling, partial curve, poor fit].
Take `Cc1cc(C)c2c(=O)[nH]n(C3CC(C)N(C)CC3C)c2n1` (configuration not stated): the cell number change was -41.7%. Moreover, the AC50 under setting [1] was 3.66 µM [falling, full curve].
As for `COc1ccc(-c2noc(CN(C)C(=O)Nc3ccccc3)n2)cc1`, the cell number change stood at 8.78%. Further, the concentration at half-maximal activity (AC50) under setting [2] is 0.103 µM [rising, full curve].
Take `NC(=O)COc1ccc(C23CC4CC(CC(C4)C2)C3)cc1`: the cell number change is -23.9%. Besides, the AC50 under setting [1] was 0.517 µM [falling, full curve, poor fit]. Moreover, under setting [2], the AC50 is 0.517 µM [falling, full curve, poor fit].
For the compound `COc1ccc(S(=O)(=O)N(CC(=O)N2CCN(c3ccccc3)CC2)c2ccccc2)cc1`, under setting [2], the AC50 is 0.58 µM [rising, single point].
Consider `CC(OC(=O)CNS(=O)(=O)/C=C/c1ccccc1)C(=O)Nc1ccc(S(=O)(=O)N2CCCC2)cc1` (configuration not stated), for which the AC50 under setting [1] was 6.51 µM [falling, partial curve, poor fit].
Turning to `COc1ccc(-n2c(=O)/c(=C\c3cccs3)s/c2=C(/C#N)C(=O)N2CCN(C)CC2)cc1`, the cell number change amounted to 20.4%. The AC50 under setting [2] was 6.51 µM [falling, single point].
With `Nc1cccc(-c2nc3cc(S(=O)(=O)c4ccc5oc(-c6cccc(N)c6)nc5c4)ccc3o2)c1`, the cell number change was -88.7%. The half-maximal activity concentration (AC50) under setting [1] is 2.06 µM [falling, full curve]. Also, the AC50 under setting [2] is 2.06 µM [falling, full curve].
In the case of `O=C(NC(=S)Nc1cccc(NC(=O)c2ccccc2Cl)c1)c1cccs1`, the cell number change is 3.21%. The AC50 under setting [2] is 16.4 µM [rising, single point].
Turning to `COc1ccc(CNC(=O)CSCc2cnn(-c3ccccc3)c2-n2cccc2)cc1`, the cell number change was determined as 55.1%. Further, under setting [1], the half-maximal activity concentration (AC50) is 23.1 µM [rising, single point]. For the same compound, the AC50 under setting [2] is 14.6 µM [rising, single point].
`CC(=O)Nc1ccc(S(=O)(=O)N2CCC(C(=O)NCCC(=O)NCc3ccccc3)CC2)cc1`: the cell number change is -23.8%.
Take `Cn1c(CNC(=O)c2ccco2)nnc1SCC(=O)c1ccc(Br)cc1`: the cell number change worked out at 17.1%. For the same compound, the half-maximal activity concentration (AC50) under setting [2] is 29.1 µM [rising, single point].
Take `CCOC(=O)c1c(N)nn(C(=O)C(C)C)c1-c1ccccc1`: the cell number change was -71.5%. Under setting [1], the AC50 is 4.11 µM [falling, partial curve, poor fit]. Moreover, under setting [2], the AC50 was 6.51 µM [falling, partial curve, poor fit].
Regarding `Cc1noc(C(=O)Nc2ccc(Cl)cc2)c1Cl`, the cell number change was found to be 15.3%.
Turning to `Cn1nnnc1P(=O)(c1ccccc1)c1ccccc1`, the cell number change came to 1.3%. Also, the AC50 under setting [2] was 2.31 µM [falling, full curve].
On to `Cc1cc(C)cc(N(CC(=O)NCC2CCCO2)C(=O)CCC(=O)Nc2cc(C)on2)c1` (configuration not stated), for which the cell number change turned out to be 30.6%. The AC50 under setting [1] was 16.4 µM [rising, single point]. The AC50 under setting [2] was 18.4 µM [rising, partial curve].
On to `CC(=O)CC1(C)OC(N)=C(C#N)C1(C#N)C#N` (configuration not stated), for which the cell number change is -20.2%.
In the case of `CSc1nc2ccc(S(=O)(=O)N3CCCC3)cc2s1`, the AC50 under setting [2] is 0.0291 µM [falling, full curve, poor fit].
In the case of `Cc1cccc(OCC(=O)N/N=C\c2cc3c(cc2[N+](=O)[O-])OCO3)c1C`, the cell number change is 5.99%. Besides, under setting [1], the concentration at half-maximal activity (AC50) was 0.116 µM [rising, full curve, poor fit]. Moreover, the AC50 under setting [2] is 0.082 µM [rising, full curve, poor fit].
On to `COc1ccc2cc(C(=O)/C=C/c3cc(OC)c(O)c(OC)c3)ccc2c1`, for which the cell number change is -32.1%. Moreover, under setting [1], the AC50 was 32.6 µM [falling, single point].
Regarding `Cc1cc(S(=O)(=O)N2CCOCC2)ccc1OCC(=O)N1CCCC1`, the cell number change is 9.66%.
On to `O=C(CCC1CC(=O)Nc2ccccc21)NCc1ccccc1` (configuration not stated), for which the cell number change was determined as 40.8%. Also, the AC50 under setting [1] is 9.2 µM [rising, partial curve, poor fit]. Under setting [2], the AC50 was 14.6 µM [rising, partial curve].
Take `COCCn1c(=N)c(C(=O)NCc2ccco2)cc2c(=O)n3ccccc3nc21`: the cell number change is -1.48%.
For the compound `CCC(CC)C(=O)Nc1nnc(SCC(=O)N2CCN(c3ccccc3OC)CC2)s1`, the cell number change turned out to be 85.2%. For the same compound, the AC50 under setting [1] was 13 µM [rising, partial curve]. For the same compound, the AC50 under setting [2] was 18.4 µM [rising, partial curve].
Take `CCCOc1ccc(C(F)(F)F)cc1NC(=O)CN1C(=O)C(=O)N(CC)C1=O`: the cell number change is 20%. In addition, the AC50 under setting [2] is 0.00461 µM [rising, full curve, poor fit].
For `COc1ccc(-n2nnnc2SCC(=O)NCc2ccco2)cc1OC`, the cell number change was 93.3%. Besides, the AC50 under setting [1] is 9.2 µM [rising, partial curve].
Regarding `Cc1ccc(C(=O)N2CCN(S(=O)(=O)c3ccccc3[N+](=O)[O-])C2)cc1`, the cell number change amounted to 17.4%. Under setting [1], the concentration at half-maximal activity (AC50) is 0.651 µM [rising, full curve, poor fit].
With `Cc1ccc(Nc2nnc(SCC(=O)NCc3ccco3)s2)cc1`, the cell number change was -31.8%. In addition, the AC50 under setting [1] is 2.31 µM [falling, full curve]. Moreover, the AC50 under setting [2] was 11.6 µM [falling, partial curve].
`O=C(NCc1ccccc1)c1ccc(CNc2c(N3CCCC3)c(=O)c2=O)cc1`: the cell number change was determined as 35.3%. Moreover, the half-maximal activity concentration (AC50) under setting [1] was 0.92 µM [rising, full curve, poor fit]. Moreover, under setting [2], the AC50 was 18.4 µM [rising, single point].
With `O=C(NCC1CC1)NC(=O)c1c(F)cccc1Cl`, the cell number change turned out to be 14.2%. Also, the AC50 under setting [1] was 6.51 µM [rising, single point].
Regarding `O=C(NNc1ncnc2sccc12)c1ccc(Cl)cc1`, the cell number change came out at 10.8%. Moreover, the AC50 under setting [1] was 4.11 µM [rising, single point]. Under setting [2], the AC50 was 29.1 µM [rising, single point].
Take `Cc1[nH]c(=O)c(C#N)c(C)c1CCC(=O)Nc1cc(S(C)(=O)=O)ccc1Cl`: the cell number change is 20.2%. Besides, the half-maximal activity concentration (AC50) under setting [1] is 2.59 µM [rising, full curve, poor fit].
As to `Cn1c(=O)c(C(=O)NCCc2ccc(Cl)cc2)c(O)c2ccccc21`, the cell number change is -15%. The AC50 under setting [2] was 20.6 µM [rising, single point].
On to `Cc1ccc(-c2ccc(CCC(=O)O)n2C(C)C)cc1`, for which the concentration at half-maximal activity (AC50) by setting is: under setting [1], 0.0058 µM [rising, full curve, poor fit]; under setting [2], 0.00461 µM [rising, full curve, poor fit].
For `CCOC(=O)CCc1c(C)nc(SCCN2CCCC2)c(C#N)c1C`, the cell number change is -1.36%. Also, the AC50 under setting [2] is 3.66 µM [rising, single point].
For `CCN(CC)CCCN(Cc1cc2cc3c(cc2[nH]c1=O)OCO3)C(=S)NCCOC`, the cell number change was 6.57%. For the same compound, the AC50 under setting [2] is 0.58 µM [rising, single point].
As to `Cc1ccc(-c2[nH]nc3c2C(c2ccc(OC(=O)N4CCOCC4)cc2)C(C#N)=C(N)O3)cc1` (configuration not stated), the concentration at half-maximal activity (AC50) under setting [2] was 0.116 µM [falling, full curve, poor fit].
On to `O=c1c2cn[nH]c2nc(SCc2ccc3c(c2)OCCO3)n1-c1ccccc1`, for which the cell number change worked out at 51.7%. Moreover, the AC50 under setting [1] is 1.3 µM [rising, full curve].
As for `CN(Cc1cccc(F)c1)C(=O)c1ccccc1Sc1ccccc1C#N`, the cell number change was -25.9%. Also, the half-maximal activity concentration (AC50) under setting [2] was 4.61 µM [falling, single point].
Turning to `CC(=O)c1ccc(S(=O)(=O)Nc2ccc(N3CCOCC3)cc2)cc1`, the cell number change turned out to be 18.5%. The AC50 under setting [1] was 0.92 µM [rising, full curve, poor fit]. The AC50 under setting [2] was 0.116 µM [rising, partial curve, poor fit].
As for `CCc1ccc(C(=O)CCC(=O)Nc2ccc(OC)c(S(=O)(=O)N3CCCCC3)c2)cc1`, the cell number change is -17%. Under setting [2], the concentration at half-maximal activity (AC50) was 29.1 µM [falling, single point].
